These are yes or no findings as the source states them, for the method shown. In cells and extracts the contact can be indirect. These calls come from enrichment with a bait or labelling near it, and not all partners need be listed.
Biological target: Flag-SND1, full-length (WT) (UniProt Q7KZF4)
Assay: affinity purification with mass spectrometry; PLC cells overexpressing Flag-tagged SND1; anti-Flag IP from purified mitochondrial lysates, LC-MS; fold change > 1.5 against the EV control

Sequences of proteins named here, by UniProt entry; tags and fusion partners are left off.
UniProt Q7KZF4: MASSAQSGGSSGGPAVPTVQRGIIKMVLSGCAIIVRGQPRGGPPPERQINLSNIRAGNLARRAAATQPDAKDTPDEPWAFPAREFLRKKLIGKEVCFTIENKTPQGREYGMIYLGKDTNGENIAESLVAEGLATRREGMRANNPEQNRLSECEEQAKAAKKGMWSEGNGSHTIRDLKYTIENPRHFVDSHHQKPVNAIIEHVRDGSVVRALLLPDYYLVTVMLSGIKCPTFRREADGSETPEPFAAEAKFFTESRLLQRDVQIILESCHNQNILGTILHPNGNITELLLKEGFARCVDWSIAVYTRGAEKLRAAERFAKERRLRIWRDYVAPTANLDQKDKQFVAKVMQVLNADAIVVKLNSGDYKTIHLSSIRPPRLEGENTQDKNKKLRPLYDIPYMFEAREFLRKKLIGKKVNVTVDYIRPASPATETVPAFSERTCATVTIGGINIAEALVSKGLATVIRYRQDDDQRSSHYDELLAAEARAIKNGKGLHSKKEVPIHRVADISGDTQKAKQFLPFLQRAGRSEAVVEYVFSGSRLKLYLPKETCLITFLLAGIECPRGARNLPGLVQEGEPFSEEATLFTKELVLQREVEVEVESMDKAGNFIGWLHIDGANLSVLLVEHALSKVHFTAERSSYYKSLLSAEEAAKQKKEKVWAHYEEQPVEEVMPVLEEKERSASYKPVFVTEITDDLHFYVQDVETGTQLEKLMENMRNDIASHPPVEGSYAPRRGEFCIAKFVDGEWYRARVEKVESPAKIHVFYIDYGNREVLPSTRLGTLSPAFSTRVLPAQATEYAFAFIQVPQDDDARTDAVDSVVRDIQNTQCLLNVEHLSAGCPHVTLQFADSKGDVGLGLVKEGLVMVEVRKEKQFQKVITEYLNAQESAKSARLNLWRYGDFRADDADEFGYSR

Row | binding | Binder
1 | binds | GOT2, endogenous in PLC cells (protein, UniProt P00505 30-430) SSWWTHVEMGPPDPILGVTEAFKRDTNSKKMNLGVGAYRDDNGKPYVLPSVRKAEAQIAAKNLDKEYLPIGGLAEFCKASAELALGENSEVLKSGRFVTVQTISGTGALRIGASFLQRFFKFSRDVFLPKPTWGNHTPIFRDAGMQLQGYRYYDPKTCGFDFTGAVEDISKIPEQSVLLLHACAHNPTGVDPRPEQWKEIATVVKKRNLFAFFDMAYQGFASGDGDKDAWAVRHFIEQGINVCLCQSYAKNMGLYGERVGAFTMVCKDADEAKRVESQLKILIRPMYSNPPLNGARIAAAILNTPDLRKQWLQEVKVMADRIIGMRTQLVSNLKKEGSTHNWQHITDQIGMFCFTGLKPEQVERLIKEFSIYMTKDGRISVAGVTSSNVGYLAHAIHQVTK
2 | binds | HACD3, endogenous in PLC cells (protein, UniProt Q9P035 1-362) MENQVLTPHVYWAQRHRELYLRVELSDVQNPAISITENVLHFKAQGHGAKGDNVYEFHLEFLDLVKPEPVYKLTQRQVNITVQKKVSQWWERLTKQEKRPLFLAPDFDRWLDESDAEMELRAKEEERLNKLRLESEGSPETLTNLRKGYLFMYNLVQFLGFSWIFVNLTVRFCILGKESFYDTFHTVADMMYFCQMLAVVETINAAIGVTTSPVLPSLIQLLGRNFILFIIFGTMEEMQNKAVVFFVFYLWSAIEIFRYSFYMLTCIDMDWKVLTWLRYTLWIPLYPLGCLAEAVSVIQSIPIFNETGRFSFTLPYPVKIKVRFSFFLQIYLIMIFLGLYINFRHLYKQRRRRYGQKKKKIH

Source: article PMC9008731
